# In PubChem BioAssay AID1986 (Sanford-Burnham Center for Chemical Genomics, 2009):
# Screen size: about 290,000 compounds; about 890 (0.31%) were called active. Rule as the data show it: active = inhibition mostly above about 52% (no sharp cut-off); inactive = mostly below about 76%. The list shows a part of the results, in another mix than the full data.
# Test: cell-free HIV fusion peptide-binding blockers – biochemical, uHTS, fluorescence dequenching, primary screen (AID 1986)
# Conditions: 30 min, at 20 µM, stronger effect = higher value
row,Structure (SMILES),inhibition
1,OCCOCCN1CCN(C(c2ccccc2)c2ccc(Cl)cc2)CC1 (configuration not stated),inactive: 1.4%
2,CC(C)(C)c1ccc(C(=O)Nc2cccc3ncccc23)cc1,active: 62%
